Compound in the experiment: Cc1cc(ccc1-c1ccccc1)C(=O)N1CCCN(CC1)C(=O)CCl [compound 10]
In words: probe-labelled cysteine peptide fold change vs DMSO (competition) (log2 fold change); higher = less target engagement (more negative = stronger competition). Conditions: THP-1, incubation time: 4 h.

By UniProt entry, the sequences of proteins in these tests, tags left out. Where a name states a change or a piece, a line headed by the entry shows the natural chain unless it says otherwise.
UniProt Q9NZJ6: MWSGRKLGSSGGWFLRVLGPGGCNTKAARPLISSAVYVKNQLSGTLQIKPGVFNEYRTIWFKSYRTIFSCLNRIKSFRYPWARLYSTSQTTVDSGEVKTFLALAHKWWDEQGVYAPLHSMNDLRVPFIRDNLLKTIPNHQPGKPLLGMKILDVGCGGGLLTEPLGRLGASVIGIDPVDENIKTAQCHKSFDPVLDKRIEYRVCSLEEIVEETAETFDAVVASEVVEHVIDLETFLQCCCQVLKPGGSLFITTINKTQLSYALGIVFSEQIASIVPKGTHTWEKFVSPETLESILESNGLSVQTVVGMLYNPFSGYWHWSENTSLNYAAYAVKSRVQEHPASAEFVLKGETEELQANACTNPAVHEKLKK
UniProt P09543: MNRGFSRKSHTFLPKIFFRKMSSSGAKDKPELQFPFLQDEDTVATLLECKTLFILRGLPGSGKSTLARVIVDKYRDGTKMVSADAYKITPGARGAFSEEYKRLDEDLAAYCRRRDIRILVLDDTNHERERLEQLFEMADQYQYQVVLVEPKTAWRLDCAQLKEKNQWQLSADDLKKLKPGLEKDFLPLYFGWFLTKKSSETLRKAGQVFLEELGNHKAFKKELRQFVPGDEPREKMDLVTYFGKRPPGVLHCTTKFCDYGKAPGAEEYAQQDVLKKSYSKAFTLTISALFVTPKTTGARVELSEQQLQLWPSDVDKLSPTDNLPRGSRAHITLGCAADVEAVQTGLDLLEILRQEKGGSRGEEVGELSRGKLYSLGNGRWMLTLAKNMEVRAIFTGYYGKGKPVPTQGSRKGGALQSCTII
UniProt Q8NI60: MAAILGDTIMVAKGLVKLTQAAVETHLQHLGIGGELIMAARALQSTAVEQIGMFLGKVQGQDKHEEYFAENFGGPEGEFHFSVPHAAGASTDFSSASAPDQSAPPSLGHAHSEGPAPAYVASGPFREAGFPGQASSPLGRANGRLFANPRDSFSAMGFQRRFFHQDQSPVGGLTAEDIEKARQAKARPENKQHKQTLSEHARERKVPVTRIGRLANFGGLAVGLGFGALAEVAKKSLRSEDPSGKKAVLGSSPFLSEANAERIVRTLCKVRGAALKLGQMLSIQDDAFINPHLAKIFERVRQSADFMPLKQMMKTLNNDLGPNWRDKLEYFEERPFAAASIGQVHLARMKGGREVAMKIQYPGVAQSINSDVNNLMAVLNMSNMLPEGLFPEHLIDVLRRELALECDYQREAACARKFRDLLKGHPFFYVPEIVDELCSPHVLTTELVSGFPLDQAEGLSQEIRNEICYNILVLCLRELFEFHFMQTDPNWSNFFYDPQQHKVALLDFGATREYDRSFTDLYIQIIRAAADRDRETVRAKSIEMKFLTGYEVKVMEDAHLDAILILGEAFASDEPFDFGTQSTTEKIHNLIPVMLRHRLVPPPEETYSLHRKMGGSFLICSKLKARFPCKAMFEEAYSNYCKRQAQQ
UniProt Q15417: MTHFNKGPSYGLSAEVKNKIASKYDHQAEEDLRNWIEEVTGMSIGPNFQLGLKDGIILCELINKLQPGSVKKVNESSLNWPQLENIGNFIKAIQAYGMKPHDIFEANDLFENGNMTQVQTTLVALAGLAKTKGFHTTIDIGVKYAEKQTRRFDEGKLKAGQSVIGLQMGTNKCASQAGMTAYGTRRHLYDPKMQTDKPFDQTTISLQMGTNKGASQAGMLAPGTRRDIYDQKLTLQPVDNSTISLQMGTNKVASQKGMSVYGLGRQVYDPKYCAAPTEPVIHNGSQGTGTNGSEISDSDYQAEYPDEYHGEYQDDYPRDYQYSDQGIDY
UniProt Q8N1G2: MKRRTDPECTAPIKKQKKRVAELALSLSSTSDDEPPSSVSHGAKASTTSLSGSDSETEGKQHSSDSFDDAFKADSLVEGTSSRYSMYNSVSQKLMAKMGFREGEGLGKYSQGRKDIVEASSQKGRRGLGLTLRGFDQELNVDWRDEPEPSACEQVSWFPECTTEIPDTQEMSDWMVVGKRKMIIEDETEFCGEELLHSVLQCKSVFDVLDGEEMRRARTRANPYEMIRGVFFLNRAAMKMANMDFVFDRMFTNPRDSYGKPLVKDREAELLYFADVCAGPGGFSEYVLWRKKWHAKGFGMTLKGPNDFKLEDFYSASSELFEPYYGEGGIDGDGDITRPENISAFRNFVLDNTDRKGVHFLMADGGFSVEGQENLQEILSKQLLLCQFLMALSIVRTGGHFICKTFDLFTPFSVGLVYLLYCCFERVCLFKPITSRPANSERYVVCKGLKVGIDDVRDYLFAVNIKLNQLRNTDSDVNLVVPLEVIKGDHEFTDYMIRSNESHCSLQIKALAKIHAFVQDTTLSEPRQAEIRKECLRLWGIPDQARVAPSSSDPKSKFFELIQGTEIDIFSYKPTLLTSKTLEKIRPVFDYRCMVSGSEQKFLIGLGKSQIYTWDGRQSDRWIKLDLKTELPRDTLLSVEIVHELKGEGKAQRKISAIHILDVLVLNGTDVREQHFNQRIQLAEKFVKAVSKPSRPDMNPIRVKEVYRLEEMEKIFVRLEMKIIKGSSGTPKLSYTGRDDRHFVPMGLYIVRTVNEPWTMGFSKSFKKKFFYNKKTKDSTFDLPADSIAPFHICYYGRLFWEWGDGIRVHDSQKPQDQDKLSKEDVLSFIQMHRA
UniProt Q96BR5: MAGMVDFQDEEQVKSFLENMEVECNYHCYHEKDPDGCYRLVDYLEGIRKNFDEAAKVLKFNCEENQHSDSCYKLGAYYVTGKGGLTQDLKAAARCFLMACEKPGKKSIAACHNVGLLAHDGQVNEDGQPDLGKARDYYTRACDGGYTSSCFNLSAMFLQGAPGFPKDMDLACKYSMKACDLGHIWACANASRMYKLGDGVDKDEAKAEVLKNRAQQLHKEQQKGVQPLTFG
UniProt Q9UNS2: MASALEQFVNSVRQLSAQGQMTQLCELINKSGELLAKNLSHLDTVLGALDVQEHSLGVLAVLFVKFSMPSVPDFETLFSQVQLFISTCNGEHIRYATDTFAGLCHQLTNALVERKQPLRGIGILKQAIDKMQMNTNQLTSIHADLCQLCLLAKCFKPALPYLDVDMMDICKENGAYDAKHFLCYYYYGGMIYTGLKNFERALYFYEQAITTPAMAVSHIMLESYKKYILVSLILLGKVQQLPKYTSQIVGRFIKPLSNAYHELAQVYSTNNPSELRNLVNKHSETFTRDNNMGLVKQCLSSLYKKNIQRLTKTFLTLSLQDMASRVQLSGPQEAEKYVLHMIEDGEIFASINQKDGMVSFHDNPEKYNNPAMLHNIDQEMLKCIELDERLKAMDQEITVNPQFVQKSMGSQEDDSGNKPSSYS
UniProt Q86VU5: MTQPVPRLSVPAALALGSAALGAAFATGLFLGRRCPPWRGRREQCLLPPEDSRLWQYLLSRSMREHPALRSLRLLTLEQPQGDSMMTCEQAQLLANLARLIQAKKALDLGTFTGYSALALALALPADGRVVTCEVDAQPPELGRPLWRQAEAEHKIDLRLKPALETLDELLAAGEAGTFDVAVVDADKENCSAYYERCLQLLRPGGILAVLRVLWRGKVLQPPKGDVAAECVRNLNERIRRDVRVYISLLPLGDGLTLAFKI
UniProt A5YKK6, whole entry, looked up: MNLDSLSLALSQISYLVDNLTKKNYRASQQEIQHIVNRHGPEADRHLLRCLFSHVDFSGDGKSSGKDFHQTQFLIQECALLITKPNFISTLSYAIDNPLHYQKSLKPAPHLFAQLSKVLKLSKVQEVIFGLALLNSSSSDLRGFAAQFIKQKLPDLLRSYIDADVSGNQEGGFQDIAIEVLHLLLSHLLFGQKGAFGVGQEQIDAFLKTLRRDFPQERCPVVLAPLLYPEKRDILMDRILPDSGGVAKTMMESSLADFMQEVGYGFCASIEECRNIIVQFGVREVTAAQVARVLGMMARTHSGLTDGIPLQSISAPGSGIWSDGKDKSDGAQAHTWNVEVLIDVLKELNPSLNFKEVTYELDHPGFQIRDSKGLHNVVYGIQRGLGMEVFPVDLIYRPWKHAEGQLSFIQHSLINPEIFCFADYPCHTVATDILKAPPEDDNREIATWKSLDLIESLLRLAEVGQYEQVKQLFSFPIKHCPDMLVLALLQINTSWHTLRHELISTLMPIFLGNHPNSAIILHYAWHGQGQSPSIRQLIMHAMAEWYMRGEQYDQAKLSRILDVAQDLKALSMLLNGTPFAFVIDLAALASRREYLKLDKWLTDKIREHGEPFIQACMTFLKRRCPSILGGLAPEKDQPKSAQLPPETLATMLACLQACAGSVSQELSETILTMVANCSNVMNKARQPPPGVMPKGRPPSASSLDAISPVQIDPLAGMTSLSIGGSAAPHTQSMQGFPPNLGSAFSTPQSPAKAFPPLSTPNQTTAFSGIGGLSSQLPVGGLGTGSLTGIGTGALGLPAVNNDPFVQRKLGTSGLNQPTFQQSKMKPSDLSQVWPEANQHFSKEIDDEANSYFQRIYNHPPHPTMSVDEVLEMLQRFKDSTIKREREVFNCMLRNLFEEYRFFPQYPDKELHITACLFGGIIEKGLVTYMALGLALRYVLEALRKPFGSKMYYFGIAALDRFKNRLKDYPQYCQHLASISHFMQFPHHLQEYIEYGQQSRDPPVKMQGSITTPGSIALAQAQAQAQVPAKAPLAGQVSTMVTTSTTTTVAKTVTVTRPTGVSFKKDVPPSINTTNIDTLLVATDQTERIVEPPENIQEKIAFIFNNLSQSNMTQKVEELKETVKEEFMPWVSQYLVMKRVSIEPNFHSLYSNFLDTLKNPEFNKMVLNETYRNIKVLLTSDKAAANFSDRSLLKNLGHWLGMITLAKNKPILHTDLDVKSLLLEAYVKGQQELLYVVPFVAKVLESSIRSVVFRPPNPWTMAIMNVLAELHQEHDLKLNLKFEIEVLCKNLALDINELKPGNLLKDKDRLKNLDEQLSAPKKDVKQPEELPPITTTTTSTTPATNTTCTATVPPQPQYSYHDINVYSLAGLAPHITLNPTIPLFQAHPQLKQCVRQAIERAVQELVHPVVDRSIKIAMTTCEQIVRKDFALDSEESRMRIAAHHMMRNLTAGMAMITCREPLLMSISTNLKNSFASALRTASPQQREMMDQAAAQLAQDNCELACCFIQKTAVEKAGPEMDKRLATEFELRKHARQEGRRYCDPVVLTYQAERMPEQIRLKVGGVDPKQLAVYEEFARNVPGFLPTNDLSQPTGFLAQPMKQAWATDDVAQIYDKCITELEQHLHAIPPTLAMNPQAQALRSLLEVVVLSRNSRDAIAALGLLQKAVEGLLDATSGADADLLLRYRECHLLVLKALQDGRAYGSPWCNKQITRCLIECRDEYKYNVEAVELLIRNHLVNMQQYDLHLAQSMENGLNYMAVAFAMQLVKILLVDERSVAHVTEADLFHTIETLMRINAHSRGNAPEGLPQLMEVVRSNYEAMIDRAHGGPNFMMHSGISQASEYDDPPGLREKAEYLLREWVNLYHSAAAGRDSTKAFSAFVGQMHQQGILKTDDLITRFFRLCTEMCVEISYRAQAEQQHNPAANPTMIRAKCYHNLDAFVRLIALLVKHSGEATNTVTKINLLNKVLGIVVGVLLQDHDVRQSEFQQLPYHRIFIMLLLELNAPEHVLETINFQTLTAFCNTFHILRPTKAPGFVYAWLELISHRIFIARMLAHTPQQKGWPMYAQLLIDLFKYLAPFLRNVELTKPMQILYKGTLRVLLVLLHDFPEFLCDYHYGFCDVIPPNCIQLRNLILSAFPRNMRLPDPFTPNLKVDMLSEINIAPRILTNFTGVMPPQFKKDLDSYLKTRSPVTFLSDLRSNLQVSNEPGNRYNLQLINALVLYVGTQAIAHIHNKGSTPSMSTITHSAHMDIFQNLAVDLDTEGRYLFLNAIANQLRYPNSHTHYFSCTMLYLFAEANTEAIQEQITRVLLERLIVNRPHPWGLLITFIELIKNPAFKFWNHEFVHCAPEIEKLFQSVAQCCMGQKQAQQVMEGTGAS
UniProt P62633: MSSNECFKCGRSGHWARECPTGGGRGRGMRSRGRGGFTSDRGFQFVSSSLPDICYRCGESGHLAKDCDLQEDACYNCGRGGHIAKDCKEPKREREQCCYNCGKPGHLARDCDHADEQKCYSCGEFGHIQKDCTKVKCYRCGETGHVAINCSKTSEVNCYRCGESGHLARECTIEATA
UniProt P31146: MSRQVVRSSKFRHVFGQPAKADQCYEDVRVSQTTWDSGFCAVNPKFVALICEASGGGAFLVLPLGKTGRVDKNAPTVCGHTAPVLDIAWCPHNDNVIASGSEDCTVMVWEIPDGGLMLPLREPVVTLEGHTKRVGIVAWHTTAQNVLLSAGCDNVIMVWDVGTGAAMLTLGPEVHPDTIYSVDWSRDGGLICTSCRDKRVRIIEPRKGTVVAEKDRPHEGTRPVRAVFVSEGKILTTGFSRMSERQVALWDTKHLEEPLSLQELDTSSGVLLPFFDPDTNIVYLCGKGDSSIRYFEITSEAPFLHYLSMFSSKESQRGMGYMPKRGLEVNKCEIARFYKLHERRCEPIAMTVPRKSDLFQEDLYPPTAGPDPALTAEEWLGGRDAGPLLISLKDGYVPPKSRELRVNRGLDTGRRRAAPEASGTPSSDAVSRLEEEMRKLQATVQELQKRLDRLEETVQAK

The other results are listed elsewhere or left out.
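Also: competitive profiling in live THP-1 cells: cysteine peptides tagged with an iodoacetamide desthiobiotin (IA-DTB) probe, intensity after compound treatment relative to DMSO-treated cells.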

“COQ3_Q9NZJ6_358_GETEELQANACTNPAVHEK (UniProt Q9NZJ6)”: the “probe-labelled cysteine peptide fold change” value by setting is: (10 µM) -0.167; (50 µM) -0.503.

As for “CNP_P09543_111_LDEDLAAYCR (UniProt P09543)”, the “probe-labelled cysteine peptide fold change” value reads like this: (10 µM) 0.132; (50 µM) 0.0616.

Turning to “COPE_O14579_225_CSPTLLLLNGQAACHMAQGR (UniProt O14579)”, the “probe-labelled cysteine peptide fold change” value is, setting by setting: (10 µM) 0.0563; (50 µM) 0.158.

On to “COQ8A_Q8NI60_641_AMFEEAYSNYCK (UniProt Q8NI60)”, for which the “probe-labelled cysteine peptide fold change” value (10 µM) is -0.0518 and the “probe-labelled cysteine peptide fold change” value (50 µM) was 0.0597.

With “CNN3_Q15417_59_DGIILCELINK (UniProt Q15417)”, the “probe-labelled cysteine peptide fold change” value (10 µM) turned out to be 0.0707 and the “probe-labelled cysteine peptide fold change” value (50 µM) turned out to be 0.00907.

“CMTR1_Q8N1G2_794_DSTFDLPADSIAPFHICYYGR (UniProt Q8N1G2)”: the “probe-labelled cysteine peptide fold change” value by setting is: (10 µM) 0.205; (50 µM) 0.653.

For “COA7_Q96BR5_100_CFLMACEK (UniProt Q96BR5)”, the “probe-labelled cysteine peptide fold change” value runs as follows: (10 µM) 0.146; (50 µM) 0.134.

Regarding “COG5_Q9UP83_64_ELLQDGCYSDFLNEDFDVK (UniProt Q9UP83)”, the “probe-labelled cysteine peptide fold change” value reads like this: (10 µM) -0.0605; (50 µM) -0.267.

For “COPS3_Q9UNS2_25_QLSAQGQMTQLCELINK (UniProt Q9UNS2)”, the “probe-labelled cysteine peptide fold change” value reads like this: (10 µM) -0.139; (50 µM) -0.0899.

For the target “COMTD1_Q86VU5_133_VVTCEVDAQPPELGR (UniProt Q86VU5)”, the “probe-labelled cysteine peptide fold change” value is, setting by setting: (10 µM) -0.0014; (50 µM) 0.348.

For the target “CNOT1_A5YKK6_1541_YCDPVVLTYQAER (UniProt A5YKK6)”, the “probe-labelled cysteine peptide fold change” value runs as follows: (10 µM) -0.216; (50 µM) -0.0345.

As to “CNBP_P62633_67_DCDLQEDACYNCGR (UniProt P62633)”, the “probe-labelled cysteine peptide fold change” value (10 µM) amounted to 0.0676.

Consider “CNBP_P62633_111_DCDHADEQK (UniProt P62633)”, for which the “probe-labelled cysteine peptide fold change” value amounted to 0.221 (10 µM) and 0.256 (50 µM).

For the target “CNBP_P62633_101_EQCCYNCGKPGHLAR (UniProt P62633)”, the “probe-labelled cysteine peptide fold change” value by setting is: (10 µM) 0.0237; (50 µM) -0.268.

“CORO1A_P31146_24_HVFGQPAKADQCYEDVR (UniProt P31146)”: the “probe-labelled cysteine peptide fold change” value by setting is: (10 µM) -0.402; (50 µM) -0.953.

These data come from the supplement of paper PMC12067093, “Discovery and optimisation of a covalent ligand for TRIM25 and its application to targeted protein ubiquitination” (Chemical Science, 2025).
